In the supplement of paper PMC12889115:
The other results are listed elsewhere or left out. Values are raw readings; no control value is given beside them.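 In the initial screen, polymyxin B was used at a concentration that permeabilizes Salmonella's outer membrane but not its inner membrane. Maximum growth was set by DMSO wells with or without polymyxin B. Since plates varied, data were ranked per plate, and compounds giving the lowest OD600 advanced as hits.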

Test system: Salmonella enterica serovar Typhimurium SL1344
Assay: bacterial growth OD600 after 18 h with compound and polymyxin B; higher = more bacterial growth (less inhibition)
Settings: 50 µM, Mueller-Hinton broth

| Compound | bacterial growth OD600 (polymyxin B 1 µg/mL) | bacterial growth OD600 (polymyxin B 0.75 µg/mL) |
| --- | --- | --- |
| COc1cc(CNC2COc3ccccc3C2)cc(OC)c1OC (centres undefined) | 1.04 |  |
| Cn1ccnc1CN1C[C@H]2OC(=O)N(CCc3cccc(Cl)c3)[C@H]2C1 | 0.972 |  |
| COc1ccc(CCN2CCC(CN(C)C(=O)c3ccc(N(C)C)cc3)CC2)cc1 | 1.23 |  |
| Cc1ccccc1N1CCN(C2CCCN(C/C=C/c3ccc(F)cc3)C2)CC1 (centres undefined) | 1.09 |  |
| CCCN1CCC(N2C[C@H]3OC(=O)N(CCc4cccc(Cl)c4)[C@H]3C2)CC1 | 0.892 |  |
| O=C(CSc1ccccc1)Nc1cnn(CC(=O)NC(CCn2ccnc2)c2ccccc2)c1 (centres undefined) |  | 0.856 |
| NC(=O)C1(C(=O)NC2CCCN(CCc3ccccc3)C2)CC1 (centres undefined) | 0.949 |  |
| Cc1occc1C(=O)NC1CCCN(C2CCCCCC2)C1 (centres undefined) | 0.914 |  |
| O=C(COc1ccccc1)Nc1ccc(N2CCC(NC(c3ccccn3)C(F)(F)F)CC2)cc1 (centres undefined) |  | 0.557 |

An excerpt of these results, with tabs:
Compound	bacterial growth OD600 (polymyxin B 1 µg/mL)	bacterial growth OD600 (polymyxin B 0.75 µg/mL)
O=C(CSc1ccccc1)Nc1cnn(CC(=O)NC(CCn2ccnc2)c2ccccc2)c1 (centres undefined)		0.856
NC(=O)C1(C(=O)NC2CCCN(CCc3ccccc3)C2)CC1 (centres undefined)	0.949	
